Measurements as given in PubChem BioAssay AID588590 (National Center for Advancing Translational Sciences (NCATS), 2011).
About 4,000 (1%) of roughly 390,000 compounds were called active. Inconclusive results, whose numbers are uncertain, are shown with a selection of clear calls. Calls follow the shape of the dose curve; as a rule, active = well fitted inhibition curve with a large enough effect; inconclusive = small, poorly fitted or top-dose-only effect, or another doubt; inactive = no such curve, though single readings can be large or run the other way. Potencies of inconclusive entries are doubtful fits and often do not repeat.

Sequences of proteins named here, by UniProt entry; tags and fusion partners are left off. A change or cut given only in a name is not applied to a line headed by its entry.
UniProt Q9UNA4: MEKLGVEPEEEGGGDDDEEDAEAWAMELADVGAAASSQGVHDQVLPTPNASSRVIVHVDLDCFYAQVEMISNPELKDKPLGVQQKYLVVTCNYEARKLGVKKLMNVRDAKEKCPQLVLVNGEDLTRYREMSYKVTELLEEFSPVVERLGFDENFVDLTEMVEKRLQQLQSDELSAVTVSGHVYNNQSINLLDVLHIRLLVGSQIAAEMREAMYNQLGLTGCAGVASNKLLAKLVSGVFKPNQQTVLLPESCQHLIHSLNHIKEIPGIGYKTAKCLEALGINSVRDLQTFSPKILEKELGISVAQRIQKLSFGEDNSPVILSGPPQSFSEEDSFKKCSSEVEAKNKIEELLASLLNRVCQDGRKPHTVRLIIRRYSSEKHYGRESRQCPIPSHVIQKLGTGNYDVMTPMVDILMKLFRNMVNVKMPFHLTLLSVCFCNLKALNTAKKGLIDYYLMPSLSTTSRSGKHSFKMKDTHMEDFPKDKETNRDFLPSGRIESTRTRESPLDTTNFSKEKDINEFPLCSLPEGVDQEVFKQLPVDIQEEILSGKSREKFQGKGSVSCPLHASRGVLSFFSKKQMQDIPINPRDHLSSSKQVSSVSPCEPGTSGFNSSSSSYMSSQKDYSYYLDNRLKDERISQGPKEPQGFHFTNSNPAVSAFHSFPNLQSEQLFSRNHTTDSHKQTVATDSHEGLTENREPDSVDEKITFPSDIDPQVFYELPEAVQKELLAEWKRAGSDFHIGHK

What follows are compounds tested against DNA polymerase iota (Homo sapiens) (UniProt Q9UNA4) (assay: qHTS for Inhibitors of Polymerase Iota). Details: Pol iota fluorescent replication assay, 10 min; series mostly up to 115 µM.
How it was run: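 Pol iota at 10 nM preincubated 15 min with compounds at room temperature; reaction started with fluorescent substrate, 50 nM final. Fluorescence read kinetically at 0 and 10 min; buffer-only wells as negative control.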
Potency is read from the fitted curve at half-maximal effect.

Potency, inactive:
Cc1ccc(C(=O)Nc2nc(-c3ccccn3)cs2)o1
CCOC(=O)c1ccc(NC(=O)C2CCCN(c3ncnc4onc(C)c34)C2)cc1 (centres undefined)
Nc1ccc(C=O)cc1
COc1ccccc1CNC(=O)C(=O)NCC(c1ccc2c(c1)OCO2)N1CCOCC1 (centres undefined)
O=C(Cc1ccc(F)cc1)N(c1ccccc1)C1C=CS(=O)(=O)C1 (centres undefined)
O=C(CSc1nc2c(c(=O)[nH]1)CN(Cc1ccc3c(c1)OCO3)CC2)Nc1ccc(F)cc1
Cn1c(=O)c2[nH]c(-c3ccc(S(=O)(=O)O)cc3)nc2n(C)c1=O
S=C1NCCOCCOCCOCCN1
COc1ccccc1CCNC(=O)c1cccn1-c1nnc(N2CCCCC2)s1
CCCCNC(=O)COC(=O)c1c2c(nc3ccccc13)/C(=C/c1cccs1)CC2
CCOc1ccc(NC(=O)c2ccc(NC(=O)Cc3n[nH]c(=O)c4ccccc34)cc2)cc1
COc1ccc(CN(CC(=O)NC2CCCCC2)C(=O)CCC(=O)Nc2nccs2)cc1
CCOC(=O)N1CCN(C(=O)CN(c2ccc(C)cc2C)S(=O)(=O)c2ccccc2)CC1
Cc1cc(C)c(/C=C/c2onc(C)c2S(=O)(=O)N2CCC(C(=O)NCc3ccco3)CC2)c(C)c1
CCN(CC)CCCNC(=O)Cn1c(-c2cccs2)cc2cc(Cl)ccc21

Potency, active:
C/C=C\C=C/C(=O)Nc1cccc(C2=NOC3(C2)C[C@@H](C(N)=O)N(C(=O)/C=C/CC)C3)c1 (some centres undefined) 28.2 µM
O=C(NCCc1ccc(Cl)cc1)C1COc2ccccc2O1 (centres undefined) 50.1 µM

Potency, inconclusive:
COc1ccc(Cl)cc1NC(=O)c1ocnc1C 22.4 µM [inhibitor, full curve, poor fit]
CC(=O)c1c(C)[nH]c(C(=O)COC(=O)CCNS(=O)(=O)c2ccc(C)c(C)c2)c1C 100 µM [inhibitor, partial curve, poor fit]
O=C(NCc1ccccc1)C1=C[C@@H](c2ccccc2)C[C@@H](OCCCCO)O1 39.8 µM [inhibitor, single point]
Cc1ccc(NC(=O)CSCC(=O)Nc2sccc2C#N)cc1 25.1 µM [inhibitor, partial curve, poor fit]
Cc1nc2cc(NC(=O)c3ccc(Br)s3)ccc2s1 70.8 µM [inhibitor, single point]
CCc1ccc(-c2nc(SCC(=O)NCCOC)c(-c3ccc(C)cc3)[nH]2)cc1 100 µM [inhibitor, single point]
COc1ccc(NC(=O)CSc2ccc(-c3sc(C)nc3C)nn2)cc1OC 17.8 µM [inhibitor, full curve]
Cc1ccc(NC(=O)c2ccc3nc[nH]c3c2)nc1 89.1 µM [inhibitor, partial curve, poor fit]
Cc1nc(SC2CC(=O)N(c3cc(Cl)cc(Cl)c3)C2=O)nc2c1CCCC2 (centres undefined) 35.5 µM [inhibitor, single point]
COc1cc(NS(=O)(=O)c2ccc3c(c2)C(C)(C)C(=O)N3C)cc(OC)c1 50.1 µM [inhibitor, partial curve, poor fit]
Cc1c(Cl)cccc1NC(=O)CSC(N)=O 25.1 µM [inhibitor, partial curve, poor fit]
CC(=O)Nc1ccc(C(=O)NNC(=O)CCCCC(=O)NNC(=O)c2ccc(NC(C)=O)cc2)cc1 79.4 µM [inhibitor, single point]
COc1ccc(-n2nnc3c(=O)n(Cc4ccccc4C)cnc32)cc1 70.8 µM [inhibitor, single point]
COc1ccc(Cl)cc1NC(=S)N(CCCN1CCOCC1)Cc1cn(C)c2ccccc12 35.5 µM [inhibitor, partial curve, poor fit]
Cc1csc2c(=O)sc(NC(=O)c3cccs3)nc12 39.8 µM [inhibitor, single point]
COc1cc(-c2c(-c3ccc4c(c3)OCO4)noc2C)ccc1F 39.8 µM [inhibitor, single point]
O=C(CCCCCN1C(=O)CCC1=O)Nc1ccc2c(c1)OCO2 1.78 µM [inhibitor, full curve, poor fit]
CC(=O)N(C)C1=C(N2CCOCC2)C(=O)c2ccccc2C1=O 12.6 µM [inhibitor, full curve, poor fit]
CCOc1ccc(NC(=O)C(=O)N/N=C/c2ccccc2F)cc1 89.1 µM [inhibitor, single point]
COc1cc(/C=C/C(=O)Nc2ccc(OC)c(S(=O)(=O)N3CCOCC3)c2)ccc1OCC#N 50.1 µM [inhibitor, partial curve, poor fit]
Cc1cccc(OCc2nnc(SC(C)C(=O)Nc3ccc(N4CCOCC4)cc3)o2)c1 (centres undefined) 89.1 µM [inhibitor, single point]
CC(C)(C)NC(=O)COc1ccc(CNCc2ccccn2)cc1 39.8 µM [inhibitor, single point]
Cc1cccc(NC(=O)Cn2c(=O)oc3ccccc32)c1 31.6 µM [inhibitor, single point]
Cc1oc(-c2ccc(Cl)cc2)nc1Cn1c(=O)cc(-c2ccccc2)c2c(C)nn(C)c21 28.2 µM [inhibitor, partial curve, poor fit]
Cc1c(Cl)c([N+](=O)[O-])nn1CC(=O)NCc1cccs1 100 µM [inhibitor, partial curve, poor fit]
Cc1ccccc1C(=O)/C=C1/c2ccccc2CC(C)(C)N1C 50.1 µM [inhibitor, partial curve, poor fit]
O=C1N/C(=N/c2ccccn2)SC1Cc1ccccc1 (centres undefined) 12.6 µM [inhibitor, full curve]
Cc1ccc(NC(=O)Cn2nnc(C(=O)NCc3ccco3)c2N)c(C)c1 70.8 µM [inhibitor, partial curve, poor fit]
Cc1cc(C)c2nc(NNC(=O)c3cc(-c4cccs4)nc4ccccc34)sc2c1 79.4 µM [inhibitor, single point]
O=C(CSc1nc2ccccc2nc1N1CCCCC1)N1CCN(c2ccccc2)CC1 31.6 µM [inhibitor, single point]
NC(=O)CC(NC(=O)c1ccccc1)c1ccc(NCCN2CCOCC2)c([N+](=O)[O-])c1 (centres undefined) 28.2 µM [inhibitor, partial curve, poor fit]
COc1cccc(/C=N/NC(=S)NCCc2ccccc2)c1OC 10 µM [inhibitor, partial curve, poor fit]
COc1cc2sc3ccc(-c4ccc(N(C)C)nc4)cc3c(=O)c2cc1OC 22.4 µM [inhibitor, partial curve, poor fit]
CCC1C(c2ccccc2)N(C)C(c2ccccc2)CC1(O)c1ccccc1 (centres undefined) 6.31 µM [inhibitor, full curve, poor fit]
Nc1[nH]n(-c2ccccc2)c(=O)c1N=Nc1ccc2ncsc2c1 20 µM [inhibitor, full curve, poor fit]
CCCOc1ccc(C(=O)C(CN2CCOCC2)c2ccccc2)cc1 (centres undefined) 1.41 µM [inhibitor, full curve, poor fit]
CC12CCC(O)CC1=CCC1C2CCC2(C)c3[nH]ncc3CC12 (centres undefined) 100 µM [inhibitor, single point]
COc1ccc(Cc2nnc(NC(=O)c3ccc(OC)cc3OC)s2)cc1 79.4 µM [inhibitor, single point]
O=C1c2ccccc2C(Nc2cccnc2)N1Cc1ccccc1 (centres undefined) 2 µM [inhibitor, full curve, poor fit]
CCOC(=O)c1c(NC(=S)Nc2ccccc2)sc2c1CC(C)(C)SC2 35.5 µM [inhibitor, partial curve, poor fit]
Cc1ccc2nc(N(CCCN(C)C)C(=O)c3ccc(Br)s3)sc2c1 89.1 µM [inhibitor, partial curve, poor fit]
C=CCNC(=O)C1CC(=O)N(c2ccc(OCC(=O)Nc3ccc(C)cc3)cc2)C1 (centres undefined) 28.2 µM [inhibitor, partial curve, poor fit]
O=c1[nH]c(N/N=C/c2ccc(O)cc2)nc2ccccc12 79.4 µM [inhibitor, partial curve, poor fit]
COc1ccc(Br)cc1C1CC(=O)N2CN(C)CSC2=C1C#N (centres undefined) 0.708 µM [inhibitor, full curve, poor fit]
CC(C)c1ccc(NC(=O)c2cccn2-c2nnc(N3CCCCC3)s2)cc1 50.1 µM [inhibitor, partial curve]
O=C1c2cccc3cc([N+](=O)[O-])cc(c23)C(=O)N1CC1CCCO1 (centres undefined) 11.2 µM [inhibitor, partial curve, poor fit]
CCOc1ccc(-c2cc(N)n(S(=O)(=O)c3ccc(OC)c(OC)c3)n2)cc1 70.8 µM [inhibitor, single point]

Four successive compounds from above, quoted:
Potency, inconclusive:
Cc1nc2cc(NC(=O)c3ccc(Br)s3)ccc2s1 70.8 µM [inhibitor, single point]
CCc1ccc(-c2nc(SCC(=O)NCCOC)c(-c3ccc(C)cc3)[nH]2)cc1 100 µM [inhibitor, single point]
COc1ccc(NC(=O)CSc2ccc(-c3sc(C)nc3C)nn2)cc1OC 17.8 µM [inhibitor, full curve]
Cc1ccc(NC(=O)c2ccc3nc[nH]c3c2)nc1 89.1 µM [inhibitor, partial curve, poor fit]

2 records picked at random from those above:
Potency, inconclusive:
COc1cc(-c2c(-c3ccc4c(c3)OCO4)noc2C)ccc1F 39.8 µM [inhibitor, single point]
CCOc1ccc(-c2cc(N)n(S(=O)(=O)c3ccc(OC)c(OC)c3)n2)cc1 70.8 µM [inhibitor, single point]
